Data: article PMC9618025
Results are given in words; binding and its absence hold for the method and conditions named. Binding seen in cells or lysates may run through a third protein. Some entries that bind do so weakly or less than the wild type.

Chains of the proteins cited; added tags and fusions are not shown. Lines headed by an entry give the natural chain unless they say otherwise; changes in a name come on top. A line that says so, or that is headed by a name, gives the form on record, which may keep a tag or linker. Residues count along the entry.
Transient Receptor Potential Cation Channel Subfamily C Member 1 (TRPC1), endogenous in A549 cells (P48995-2, form named): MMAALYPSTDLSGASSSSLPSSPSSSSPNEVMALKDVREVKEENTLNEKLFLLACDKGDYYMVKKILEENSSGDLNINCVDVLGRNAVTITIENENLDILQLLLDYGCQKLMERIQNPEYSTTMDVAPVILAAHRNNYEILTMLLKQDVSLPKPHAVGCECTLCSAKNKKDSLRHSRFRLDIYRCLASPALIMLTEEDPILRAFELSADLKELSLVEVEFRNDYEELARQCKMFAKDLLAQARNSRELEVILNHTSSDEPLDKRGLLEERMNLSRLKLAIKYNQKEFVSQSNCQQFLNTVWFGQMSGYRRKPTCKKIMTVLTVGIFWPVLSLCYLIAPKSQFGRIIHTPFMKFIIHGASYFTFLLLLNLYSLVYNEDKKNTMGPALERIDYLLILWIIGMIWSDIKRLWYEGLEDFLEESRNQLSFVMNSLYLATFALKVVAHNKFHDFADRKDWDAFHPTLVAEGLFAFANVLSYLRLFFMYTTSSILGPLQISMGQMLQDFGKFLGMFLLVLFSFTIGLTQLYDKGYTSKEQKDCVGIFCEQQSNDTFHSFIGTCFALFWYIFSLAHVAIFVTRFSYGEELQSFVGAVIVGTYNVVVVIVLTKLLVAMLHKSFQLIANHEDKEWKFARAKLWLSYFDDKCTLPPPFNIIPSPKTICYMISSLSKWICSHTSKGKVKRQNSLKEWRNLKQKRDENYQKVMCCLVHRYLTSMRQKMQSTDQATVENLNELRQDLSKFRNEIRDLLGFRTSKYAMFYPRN
UniProt Q13586, residues 23-685: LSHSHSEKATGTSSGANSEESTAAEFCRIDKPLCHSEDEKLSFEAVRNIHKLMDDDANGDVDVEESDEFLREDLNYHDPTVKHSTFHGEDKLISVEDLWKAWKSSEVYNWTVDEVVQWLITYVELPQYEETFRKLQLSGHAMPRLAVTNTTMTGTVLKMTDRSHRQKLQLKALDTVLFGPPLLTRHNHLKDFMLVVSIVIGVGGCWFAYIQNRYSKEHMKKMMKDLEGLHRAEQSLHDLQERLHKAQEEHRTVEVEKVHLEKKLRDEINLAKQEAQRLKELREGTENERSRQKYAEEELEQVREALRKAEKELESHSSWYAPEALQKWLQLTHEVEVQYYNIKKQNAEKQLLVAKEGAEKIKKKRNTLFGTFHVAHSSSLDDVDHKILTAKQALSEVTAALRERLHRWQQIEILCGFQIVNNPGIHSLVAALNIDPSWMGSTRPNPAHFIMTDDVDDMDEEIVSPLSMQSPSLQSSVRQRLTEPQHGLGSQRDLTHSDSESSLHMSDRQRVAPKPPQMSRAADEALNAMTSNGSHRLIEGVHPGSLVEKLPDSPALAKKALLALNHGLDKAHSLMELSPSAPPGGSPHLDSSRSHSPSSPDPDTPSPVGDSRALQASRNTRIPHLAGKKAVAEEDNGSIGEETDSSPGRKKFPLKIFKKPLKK

Assays:
[1] = target: Transient Receptor Potential Cation Channel Subfamily C Member 1 (TRPC1), endogenous in A549 cells (human (endogenous in A549)) (UniProt P48995); assay: co-IP; A549 cells treated with 800 μM PQ for 0, 5, 15, 30, 60 min; lysate with TRPC1 antibody overnight, protein A/G beads 3 h at 4 °C; blots for STIM1 and ORAI1
[2] = target: STIM1 (endogenous, A549 cells) (human (endogenous in A549)) (UniProt Q13586); assay: co-IP; A549 cells treated with 800 μM PQ for 0-60 min, or infected with shRNA-ORAI1 or shRNA-TRPC1 and treated with 800 μM PQ for 24 h; STIM1 precipitated, blots for ORAI1 and TRPC1

| binding [1] | binding [2] | Substance |
| --- | --- | --- |
| binds |  | STIM1 (endogenous, A549 cells) (from UniProt Q13586 23-685) |
|  | binds | Transient Receptor Potential Cation Channel Subfamily C Member 1 (TRPC1), endogenous in A549 cells (from UniProt P48995-2 1-759) |
